In PubChem BioAssay AID1508600 (Functional Genomics Laboratory (NCATS/FGL), 2020):
Hit rate of the full screen: of about 53,000 sequences, about 3,700 (7%) were called active.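 Rule for the calls: active = gene knockdowns whose robust z-score for IL-1 alpha signal is at least 2 or at most -2, so actives lie on both sides; inactive = the rest.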 This is one part of the list.

Assay: Components of the Cytosolic LPS Sensing Pathway: Gene Identification via Genome-wide siRNA Screen;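 note: robust z of the log signal after scaling to non-targeting control siRNA wells of the plate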
Details: RAW264.7 macrophages, IL-1a HTRF, actives lie on both sides, screened at 100 nM (by protocol), cells primed 5 h with Pam3CSK4 first
Summary of the method: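 Mouse macrophage line RAW264.7 is transfected with siRNA (100 nM final), grown 48h, primed with TLR ligand Pam3CSK4 5 h and given intracellular LipidA 24 h. IL-1a in supernatant is read by HTRF and viability by luminescence.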

Sequence	z-score
CCACCAAAAACAAAGGACCTT against BC061195	inactive: -1.08
GGAAGUUAGCUCCUAAAUATT against Pirt	inactive: -0.383
CCCAAUACCAAGUUAUUCCTT against Ms4a8a	inactive: 0.52
GCGAAAUGGACAGAUGUGATT against 2610001J05Rik	inactive: -1.94
GGACAUCAGUGUGUACAUUTT against 1700010I14Rik	inactive: 0.443
CGUGGUCAAUAAUGUAAUATT against Stard4	inactive: 0.535
CGCAUGAUAACUAGAGAAUTT against Slitrk3	inactive: -0.269
GCAUUUCACCGUCAUGAACTT against Ttll12	active: -2.55
GAGAGCAGAGCUUGAGACATT against Angptl6	inactive: -0.561
CCAUGUUAAUCCUGACAGCTT against Jade3	inactive: -0.352
GGGACCUCAAAGUUGUCUATT against Ap1s1	inactive: -0.841
GCAGUGUUUUACGACUUGATT against Wscd1	inactive: -0.355
GGAGCAAGACAUAUAGAAATT against Spsb2	active: 2.26
CCCAAACCUGACCUAUGCATT against Pgm5	inactive: -0.386
GGAGGAAAGAAGAAAUAUCTT against Parvg	inactive: 1.07
GGAAAAAGUGAAAACCUUGTT against Jun	inactive: 0.389
GGAAGUACAGUGGUCUCUGTT against Slc22a15	inactive: -1.52
GGAGGAUGCCAAAGAGAACTT against Zfp750	inactive: 0.469
CGUUGGUAUUUCCUUUGUATT against Slfn4	inactive: -0.227
GGAAUGUUACAUUUCAGUUTT against Adam1a	active: 2.15
GGUUCUGGCUCCUUGGACUTT against Oscar	inactive: 1.28
GCACGAGAGUCUGAAGGAUTT against Mns1	inactive: -0.2
GGUUUUUUUUCCUUUCCCUTT against Frs3	inactive: 0.387

Part of the list above, as a markdown table:

| Sequence | z-score |
| --- | --- |
| CCCAAUACCAAGUUAUUCCTT against Ms4a8a | inactive: 0.52 |
| GCGAAAUGGACAGAUGUGATT against 2610001J05Rik | inactive: -1.94 |
| GGACAUCAGUGUGUACAUUTT against 1700010I14Rik | inactive: 0.443 |

(cont.)

Sequence	z-score
GCAAUCCUCUUCACCCUCUTT against Olfr1495	inactive: 0.508
GUAUUGGAUACGAAGCAGATT against Defb2	inactive: -0.154
GCAGAUCAUUAAGAUCCGATT against Ruvbl1	inactive: 0.764
GUCCUCGUAGGAACAGCAUTT against Olfr1265	inactive: -1.52
GGGUUACCAGUUUGAGGAGTT against Pex5	inactive: -0.374
GGAGACGAUCCAAGAAGAATT against Mapk1ip1	inactive: -0.546
GGAAGUAUGUGGAUAAAUUTT against Usp5	inactive: -0.567
GCUGGAUUCUCAAAGGGAATT against Agmo	inactive: -0.0877
GGAUAUAAAGGGAGCUUUUTT against Olfr397	inactive: 1.18
GGAGCUGGCAGACAUCACUTT against Ube2e1	inactive: -0.442
CGGACAAAUUGGAUGGUUUTT against Nck1	inactive: 0.966
GCUUCUUCUGUGAACUUCCTT against Olfr854	inactive: -0.939
GACAAGUUCUCAAGUAUCCTT against 1110006O24Rik	active: -2.02
GCCACCUACUACGACAACATT against Hoxb3	inactive: 0.633
GGUGGAUAAUGUUUAAACATT against Vmn1r78	inactive: 0.333
CGGCUUAGUGUAAUUUGCCTT against Diras2	inactive: -0.146
GAAAUGCAAGACUCUGCACTT against 1700020L24Rik	active: -2.66
GGCUUCAAUCCUGACGAGATT against Elfn2	inactive: 0.72
CCCAGCCGUAACUUAUGAGTT against Pga5	inactive: -0.468
GGAACUUGAAAGAGAUUCUTT against Usp28	inactive: -0.729
GGACAGUGACCAAUUAUUUTT against Tacr1	inactive: -0.468
CGCAACCAGUUUGUUCCUGTT against Ugt1a6b	inactive: -1.01
GGUGAAUGCAGAGCUUUCATT against Aplf	inactive: -1.12

Sequence	z-score
CGAUGGUGAUUAUCUAAAATT against Tm4sf4	inactive: -0.0694
GGAACUUACAAGUAUCAGATT against Bhlhe22	inactive: -0.436
CCUUUCAUCACAAAGAAUGTT against Sppl2a	inactive: -0.0436
GGGUCUCUAUGGAAUCAAUTT against Ldha	active: 2.83
GGAAUUUAAGGAAGCUGCUTT against Homer1	inactive: -0.698
CCCUCUACAAUAUUCUCUATT against Olfr1118	inactive: -0.759
CCCAGGAUUCUACUAGAUUTT against Pdzd7	inactive: 0.754
CGCAGACAACAAAGUAGAATT against Sars	inactive: 0.738
GGCAGGUUUUUGAACUGGUTT against Olfr725	active: 2.28
GGACCGCGUUCAAGAAGAATT against Cyp2c37	active: 2.17
CCCUAGAGGCAGAUGCAAATT against Gm5478	inactive: 0.246
CCUUGUUCCCACUUUUGUATT against Cirbp	inactive: 1.26
GGAUUCUCCUUUACCUUUGTT against B930095G15Rik	inactive: 0.0151
GUCCACGAAACUAAAACUGTT against Prl3d1	inactive: -0.357
GGAAAUCCGAAAUGAGCUGTT against Ssh1	inactive: 1.87
GGGAGUAGACAGUUAGAAGTT against 2900092C05Rik	inactive: 0.852
GGUCCUACAGGGAAUACCGTT against Habp4	inactive: -0.0289
GCGGAAUCAUCAGAAACAATT against Acsl6	inactive: -0.857
GGUCAAAUAAAGCUGUGGUTT against Uba52	inactive: -0.562
CCAGAUUAAGUUUAUAGCCTT against Uros	inactive: -0.147
GGGUAAUGACAUUAGCAGUTT against Pebp1	inactive: -1.31
